Values from PubChem BioAssay AID1259308 (NCATS, 2017)

Purpose: 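Candidate targets for better recombinant protein yield in mammalian cells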 (primary screen)
Cell system: human HEK293 embryonic kidney cells stably expressing firefly luciferase (HEK-CMV-Luc2-Hygro)
Knock-down reagent: single siRNA against human genes, 0.8 pmol siRNA per well
Time to read-out: 72 h
Read-out: 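Reporter luminescence and viable-cell signal on separate replicate plates, given as percent of non-targeting control and median/MAD z-scores, plus per-cell luciferase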
Reading the numbers: total luciferase, z-score and total luciferase, % of control: higher = more reporter protein produced; luciferase per cell, z-score: higher = more reporter output per viable cell; viable cells, % of control: higher = more viable cells
Rule for the call: 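Active when the median/MAD z-score for overall luciferase is greater than 3; a gene was taken forward for validation with new siRNAs if at least two of its three siRNAs passed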
Calls: active = raised luciferase; inactive = no rise
The deposit covers about 59,000 reagents; below is a part drawn at random. Over the whole deposit, about 1,510 (2.6%) were called active. 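Calls use total luciferase alone and ignore viability, so some active siRNAs may act by altering cell number.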 The numbers tell different reagents against one gene apart.

gene knocked down | reagent | total luciferase, z-score | total luciferase, % of control | luciferase per cell, z-score | viable cells, % of control | call
ST3GAL1 (ST3 beta-galactoside alpha-2,3-sialyltransferase 1) | 1 | -0.21 | 77.7 | -0.109 | 89.4 | inactive
ST3GAL1 (ST3 beta-galactoside alpha-2,3-sialyltransferase 1) | 2 | 0.516 | 92.1 | 1.1 | 77 | inactive
ST3GAL1 (ST3 beta-galactoside alpha-2,3-sialyltransferase 1) | 3 | -1.16 | 58.9 | -0.878 | 82.9 | inactive
TULP1 (TUB like protein 1) | 1 | -0.49 | 72.1 | -0.255 | 86.2 | inactive
TULP1 (TUB like protein 1) | 2 | -0.00401 | 81.8 | 0.564 | 78.8 | inactive
TULP1 (TUB like protein 1) | 3 | 0.539 | 92.6 | 0.222 | 97.6 | inactive
NLRP2 (NLR family pyrin domain containing 2) | 1 | -0.411 | 73.7 | 0.163 | 78.9 | inactive
NLRP2 (NLR family pyrin domain containing 2) | 2 | 0.259 | 87 | -0.0764 | 99.2 | inactive
NLRP2 (NLR family pyrin domain containing 2) | 3 | 0.304 | 87.9 | -0.135 | 102 | inactive
ANO8 (anoctamin 8) | 1 | 0.649 | 94.8 | 0.924 | 83.1 | inactive
ANO8 (anoctamin 8) | 2 | -0.757 | 66.8 | -0.512 | 85.5 | inactive
ANO8 (anoctamin 8) | 3 | -0.673 | 68.5 | -1.23 | 106 | inactive
ETFDH (electron transfer flavoprotein dehydrogenase) | 1 | 0.241 | 86.7 | -0.233 | 103 | inactive
ETFDH (electron transfer flavoprotein dehydrogenase) | 2 | 0.332 | 88.5 | 0.88 | 78.4 | inactive
ETFDH (electron transfer flavoprotein dehydrogenase) | 3 | -1.01 | 61.8 | -1.89 | 114 | inactive
PODXL (podocalyxin like) | 1 | -1.5 | 52 | -1.58 | 88.2 | inactive
PODXL (podocalyxin like) | 2 | 0.356 | 89 | 1.78 | 62.2 | inactive
PODXL (podocalyxin like) | 3 | 0.0549 | 83 | -0.815 | 115 | inactive
CEP95 (centrosomal protein 95) | 1 | 0.956 | 101 | 0.961 | 87.5 | inactive
CEP95 (centrosomal protein 95) | 2 | 3.39 | 149 | 2.57 | 84.7 | active
CEP95 (centrosomal protein 95) | 3 | -0.711 | 67.7 | -0.577 | 88.1 | inactive
ZNF324B (zinc finger protein 324B) | 1 | 2.09 | 123 | 2.23 | 76.6 | inactive
ZNF324B (zinc finger protein 324B) | 2 | 0.629 | 94.4 | 1.05 | 80.1 | inactive
ZNF324B (zinc finger protein 324B) | 3 | 2.02 | 122 | 1.64 | 88.4 | inactive
FAM177A1P1 (family with sequence similarity 177 member A1 pseudogene 1) | 1 | 2.11 | 124 | 2.78 | 66.6 | inactive
FAM177A1P1 (family with sequence similarity 177 member A1 pseudogene 1) | 2 | -0.454 | 72.8 | -0.275 | 87.5 | inactive
FAM177A1P1 (family with sequence similarity 177 member A1 pseudogene 1) | 3 | 0.112 | 84.1 | 0.159 | 90.1 | inactive

In a second layout: results already given.
| gene knocked down | reagent | total luciferase, z-score | total luciferase, % of control | luciferase per cell, z-score | viable cells, % of control | call |
| --- | --- | --- | --- | --- | --- | --- |
| ETFDH (electron transfer flavoprotein dehydrogenase) | 3 | -1.01 | 61.8 | -1.89 | 114 | inactive |
| PODXL (podocalyxin like) | 1 | -1.5 | 52 | -1.58 | 88.2 | inactive |
| PODXL (podocalyxin like) | 2 | 0.356 | 89 | 1.78 | 62.2 | inactive |

More records follow:
gene knocked down | reagent | total luciferase, z-score | total luciferase, % of control | luciferase per cell, z-score | viable cells, % of control | call
HERPUD1 | 1 | 0.736 | 96.5 | 0.912 | 84.8 | inactive
HERPUD1 | 2 | -0.369 | 74.5 | -0.242 | 88.8 | inactive
HERPUD1 | 3 | 0.045 | 82.8 | -0.637 | 109 | inactive
RNF212 (ring finger protein 212) | 1 | 1.64 | 115 | 3.37 | 52.8 | inactive
RNF212 (ring finger protein 212) | 2 | -0.767 | 66.6 | -1.08 | 99 | inactive
RNF212 (ring finger protein 212) | 3 | -0.366 | 74.6 | -0.431 | 93.4 | inactive
KIF2C (kinesin family member 2C) | 1 | -0.442 | 73.1 | -0.114 | 84.2 | inactive
KIF2C (kinesin family member 2C) | 2 | 0.493 | 91.7 | 0.273 | 95.3 | inactive
KIF2C (kinesin family member 2C) | 3 | 0.502 | 91.9 | 0.0563 | 101 | inactive
ADRB3 (adrenoceptor beta 3) | 1 | 0.444 | 90.7 | 0.378 | 91.8 | inactive
ADRB3 (adrenoceptor beta 3) | 2 | 0.315 | 88.1 | 0.534 | 85.6 | inactive
ADRB3 (adrenoceptor beta 3) | 3 | -0.554 | 70.9 | -1.01 | 103 | inactive
CCNA1 (cyclin A1) | 1 | 1.84 | 118 | 1.09 | 99.4 | inactive
CCNA1 (cyclin A1) | 2 | -1.59 | 50.3 | -1.06 | 74.4 | inactive
CCNA1 (cyclin A1) | 3 | -1.19 | 58.2 | -0.924 | 82.9 | inactive
GPS2 (G protein pathway suppressor 2) | 1 | -0.0587 | 80.7 | -0.62 | 106 | inactive
GPS2 (G protein pathway suppressor 2) | 2 | 1.25 | 107 | 1.3 | 84.6 | inactive
GPS2 (G protein pathway suppressor 2) | 3 | -0.82 | 65.6 | -0.999 | 95.3 | inactive
ARMC10P1 (armadillo repeat containing 10 pseudogene 1) | 1 | -0.428 | 73.4 | -0.205 | 86.6 | inactive
ARMC10P1 (armadillo repeat containing 10 pseudogene 1) | 2 | -0.222 | 77.5 | -0.458 | 97.7 | inactive
ARMC10P1 (armadillo repeat containing 10 pseudogene 1) | 3 | 1.07 | 103 | 1.32 | 81.4 | inactive
SHISAL1 (shisa like 1) | 1 | -0.183 | 78.3 | -0.658 | 104 | inactive
SHISAL1 (shisa like 1) | 2 | -0.185 | 78.2 | -0.268 | 93.8 | inactive
SHISAL1 (shisa like 1) | 3 | 0.905 | 99.9 | 0.133 | 108 | inactive
LINC01565 (long independently transcribed non-coding RNA 1565) | 1 | 0.286 | 87.6 | 0.533 | 85.1 | inactive
LINC01565 (long independently transcribed non-coding RNA 1565) | 2 | 1.98 | 121 | 1.1 | 101 | inactive
LINC01565 (long independently transcribed non-coding RNA 1565) | 3 | 2.79 | 137 | 3.26 | 65.1 | inactive
TFF2 (trefoil factor 2) | 1 | 0.208 | 86 | 0.162 | 92.1 | inactive
TFF2 (trefoil factor 2) | 2 | 1.23 | 106 | 1.24 | 85.6 | inactive
TFF2 (trefoil factor 2) | 3 | 1.75 | 117 | 1.6 | 85.5 | inactive
